From PubChem BioAssay AID1347076 (National Center for Advancing Translational Sciences (NCATS), 2019)
Out of some 400,000 compounds screened, about 13,000 (3.2%) were called active. The inconclusive results got no clear call from the source; some entries with a clear call stand among them for comparison. Calls come from the whole dose curve; as a rule, active = well fitted cell-killing curve with a large enough effect; inconclusive = small, poorly fitted or top-dose-only effect, or effect the other way; inactive = flat fitted curve, though single readings scatter. A potency beside an inconclusive call is a rough fit, not a confirmed value.

assay: qHTS assay for MDR1-selective chemotherapeutics: Primary screen using the drug-selected MDR subline cells KB-V1; conditions: KB-V1 MDR cells viability, CellTiter-Glo, 72 h; activity change, negative = cytotoxicity: at 46.1 µM (top of the series); note: nearly all actives have a fitted effect of over 60% in size
Procedure, shortened: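 Potencies derive from concentration-effect curves fitted to normalized luminescence (CellTiter-Glo) of KB-V1 cells treated for 72 h at 37 degrees C in phenol-red-free DMEM containing 10% FBS.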
% is set by controls: 0 for no effect and ±100 for the full control effect; potency is the fitted concentration of half-maximal effect.

SMILES | Potency | activity change, negative = cytotoxicity
O=C(c1cccs1)n1nc(-c2ccccc2)nc1NCc1ccc(F)cc1 | active: 13 µM | –
CC(=O)NN1C(=O)/C(=C2/Sc3ccc(Cl)cc3N2C)SC1=S | inconclusive: 16.4 µM [rising, single point] | –
Cc1cc(C)c2c(CN3CCN(C/C=C/c4ccccc4)CC3)cc(=O)oc2c1 | inconclusive: 8.2 µM [cytotoxic, partial curve, poor fit] | –
O=C(NCc1ccc(N2CCCC2=O)cc1)Nc1cccc(Cl)c1 | active: 16.4 µM | –
O=C1NC[C@H](CC2CCCCC2)N(CCc2cccc(F)c2)C1=O | – | inactive: 0%
Cn1c(C(=O)NC2CCCCC2)cc2c(=O)n3ccccc3nc21 | inconclusive: 29.1 µM [rising, single point] | –
COc1cccc(-c2nn(C)c3sc(C(=O)N4CCN(c5cccc(C)c5)C(C)C4)cc23)c1 (stereo not drawn) | – | inactive: 12.4%
O=C(CSc1nnc(C2CCCCC2)o1)Nc1ccccc1Cl | inconclusive: 23.1 µM [cytotoxic, partial curve] | –
COc1ccc(NC(=O)c2ccccc2OCc2ccc(F)cc2)c(OC)c1 | inconclusive: 6.51 µM [cytotoxic, partial curve] | –
CCCN(CCC)c1nc(N)nc(-c2cc(Cl)ccc2OC)n1 | inconclusive: 14.6 µM [cytotoxic, partial curve] | –
Brc1cccc(C2Nc3cccc4cccc(c34)N2)c1 | inconclusive: 29.1 µM [rising, single point] | –
COc1ccc(Cn2c(O)c(C=Nc3ccc(O)cc3)c3ccccc3c2=O)cc1 | active: 20.6 µM | –
Cc1ccc(C)c(N(C(=O)c2csnn2)C(C(=O)NC2CCCCC2)c2ccccn2)c1 (stereo not drawn) | inconclusive: 4.11 µM [cytotoxic, partial curve, poor fit] | –
Cc1c(Cl)cccc1NC(=O)Cn1nc(C)c2sc3ccccc3c2c1=O | – | inactive: -0.476%
Cc1ccc(C)c(S(=O)(=O)c2nnn3c2nc(Nc2ccc(F)c(Cl)c2)c2sccc23)c1 | inconclusive: 29.1 µM [cytotoxic, single point] | –
O=C(Nc1ccn(CCCNC2CCN(Cc3ccccc3)CC2)c(=O)n1)OCc1ccccc1 | – | inactive: 11%
O=C(Cc1nc2ccccc2[nH]1)c1ccc(Cl)cc1 | – | inactive: -7.92%
COc1ccc(N2CCN(c3cc(C)c4ccc(O)cc4n3)CC2)cc1 | – | inactive: -5.54%
CCN1C(=O)C(CC(=O)Nc2ccc(F)cc2)N(CCCN2CCN(c3ccc(F)cc3)CC2)C1=S (stereo not drawn) | inconclusive: 5.17 µM [cytotoxic, partial curve] | –
CCn1cc(CNC(=O)c2cc(COc3ccc(F)cc3F)on2)cn1 | inconclusive: 18.4 µM [cytotoxic, single point] | –
Cc1ccc(NC(=S)NCc2ccccc2Cl)c(C)c1 | inconclusive: 29.1 µM [cytotoxic, single point] | –
COC(=O)c1cc(OC)c(OC)cc1NC(=O)c1ccc(C)cc1 | active: 3.26 µM | –
COc1ccc(N2CCN(C(=O)c3ccc4c(c3)CCN4S(C)(=O)=O)CC2)cc1 | inconclusive: 10.3 µM [cytotoxic, partial curve, poor fit] | –
CC(=O)c1ccccc1NS(C)(=O)=O | – | inactive: 9%

In the list so far, 2 have two or more sulfur atoms:
SMILES | Potency | activity change, negative = cytotoxicity
CC(=O)NN1C(=O)/C(=C2/Sc3ccc(Cl)cc3N2C)SC1=S | inconclusive: 16.4 µM [rising, single point] | –
Cc1ccc(C)c(S(=O)(=O)c2nnn3c2nc(Nc2ccc(F)c(Cl)c2)c2sccc23)c1 | inconclusive: 29.1 µM [cytotoxic, single point] | –

Remaining list, next part

SMILES | Potency | activity change, negative = cytotoxicity
COc1ccc(NC(=O)Nc2ncn(Cc3cccc(C(F)(F)F)c3)n2)cc1OC | inconclusive: 11.2 µM [cytotoxic, single point] | –
CCCCOC(=O)c1ccc(NC(=O)Cc2coc3ccc(C(C)C)cc23)cc1 | – | inactive: -23%
CN1CCN(CCOc2ccc(-c3ccccc3)cc2)CC1 | – | inactive: -11.1%
COc1cccc(CNc2nc(SC)ncc2CO)c1 | inconclusive: 23.1 µM [cytotoxic, partial curve, poor fit] | –
Cc1ccc2c(c1)N(C(=O)N1CCC(C(=O)NCc3ccco3)CC1)CC(C)O2 (stereo not drawn) | – | inactive: 0.949%
O=c1c2ccccc2nc(-c2ccco2)n1CCCn1ccnc1 | active: 8.2 µM | –
O=C(/N=C1\NC(=O)C(F)(C(F)(F)F)S1)NC1CCCCC1 (stereo not drawn) | inconclusive: 29.1 µM [cytotoxic, single point] | –
COC(=O)c1c(NC(=O)CSc2n[nH]c(N)n2)sc(C)c1C | – | inactive: 2.77%
COc1ccc2sc(-c3ccc(S(C)(=O)=O)cc3)c(C#CCO)c2c1 | inconclusive: 18.4 µM [cytotoxic, partial curve, poor fit] | –
O=C(c1ccc([N+](=O)[O-])cc1)N(Cc1ccc(Br)cc1)N1C(=O)CCCC1=O | inconclusive: 16.4 µM [cytotoxic, single point] | –
COC1c2ccccc2C(=O)N1CCc1ccc(Cl)cc1 (stereo not drawn) | – | inactive: 20.1%
CC1=C(C(=O)N2CCOCC2)CC(CC(=O)NCCN2CCOCC2)C(=O)N1Cc1ccccc1 (stereo not drawn) | – | inactive: -13.8%
CCc1ccc(OCC(=O)NCc2nc(-c3cccc(C)c3)no2)c(Br)c1 | inconclusive: 32.6 µM [cytotoxic, single point] | –
COc1ccc(OC)c(NC(=O)COC(=O)c2c3c(nc4ccccc24)CCCC3)c1 | active: 25.9 µM | –
COc1ccc(NC(=O)c2cccc(S(=O)(=O)N(C)c3ccccc3)c2)cn1 | active: 3.26 µM | –
Cc1cc(NC(=O)CN2C(=O)NC(c3ccccc3)(c3ccc(C)c(C)c3)C2=O)no1 (stereo not drawn) | – | inactive: -3.94%
COC(=O)Nc1nc2ccc(C(=O)c3cccs3)cc2[nH]1 | active: 0.13 µM | –
CC1CCN(Cc2c(C(=O)N/N=C/c3ccc(OC(C)C)cc3)nnn2-c2nonc2N)CC1 | – | inactive: -14.6%
CS(=O)(=O)N(CC(=O)N1CCN(c2ccccc2F)CC1)c1cccc(C(F)(F)F)c1 | inconclusive: 23.1 µM [cytotoxic, single point] | –
CCc1n[nH]c(=S)n1/N=C/c1ccc2c(c1)OCO2 | inconclusive: 29.1 µM [cytotoxic, single point] | –
Cn1c(Oc2ccc(F)cc2)nc2c1c(=O)n(Cc1ccccc1Cl)c(=O)n2C | active: 10.3 µM | –
Nc1cccc2c(O)cccc12 | inconclusive: 0.13 µM [rising, full curve, poor fit] | –
Cc1ccc(NC(=O)CCCc2nc3ccccc3c(=O)[nH]2)c(Cl)c1 | – | inactive: -8.38%
C=C(C)CSc1nnc(CCCCCNC(=O)OC(C)(C)C)o1 | inconclusive: 11.6 µM [cytotoxic, partial curve] | –
